Results taken from patent US20090221440A1.
No constants are given. Whether binding was seen depends on the method and setting. For some of these results: Binding seen in cells or lysates may run through a third protein. Some entries that bind do so weakly or less than the wild type.

Amino acid sequences for entries named in this document (tags omitted). A change or cut given only in a name is not applied to a line headed by its entry.
UniProt P31749: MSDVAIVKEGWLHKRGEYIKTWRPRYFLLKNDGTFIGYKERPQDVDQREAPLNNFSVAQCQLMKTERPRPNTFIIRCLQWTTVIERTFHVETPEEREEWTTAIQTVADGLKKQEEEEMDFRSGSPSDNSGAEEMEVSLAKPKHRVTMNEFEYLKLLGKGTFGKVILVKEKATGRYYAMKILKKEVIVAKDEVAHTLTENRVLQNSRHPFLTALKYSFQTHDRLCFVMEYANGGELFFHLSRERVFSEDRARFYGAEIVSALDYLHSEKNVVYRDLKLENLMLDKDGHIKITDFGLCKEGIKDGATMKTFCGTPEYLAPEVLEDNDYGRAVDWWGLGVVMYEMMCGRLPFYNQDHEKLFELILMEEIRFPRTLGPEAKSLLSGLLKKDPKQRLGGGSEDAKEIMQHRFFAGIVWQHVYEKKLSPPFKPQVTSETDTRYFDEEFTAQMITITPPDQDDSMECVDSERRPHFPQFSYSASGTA
UniProt O43707: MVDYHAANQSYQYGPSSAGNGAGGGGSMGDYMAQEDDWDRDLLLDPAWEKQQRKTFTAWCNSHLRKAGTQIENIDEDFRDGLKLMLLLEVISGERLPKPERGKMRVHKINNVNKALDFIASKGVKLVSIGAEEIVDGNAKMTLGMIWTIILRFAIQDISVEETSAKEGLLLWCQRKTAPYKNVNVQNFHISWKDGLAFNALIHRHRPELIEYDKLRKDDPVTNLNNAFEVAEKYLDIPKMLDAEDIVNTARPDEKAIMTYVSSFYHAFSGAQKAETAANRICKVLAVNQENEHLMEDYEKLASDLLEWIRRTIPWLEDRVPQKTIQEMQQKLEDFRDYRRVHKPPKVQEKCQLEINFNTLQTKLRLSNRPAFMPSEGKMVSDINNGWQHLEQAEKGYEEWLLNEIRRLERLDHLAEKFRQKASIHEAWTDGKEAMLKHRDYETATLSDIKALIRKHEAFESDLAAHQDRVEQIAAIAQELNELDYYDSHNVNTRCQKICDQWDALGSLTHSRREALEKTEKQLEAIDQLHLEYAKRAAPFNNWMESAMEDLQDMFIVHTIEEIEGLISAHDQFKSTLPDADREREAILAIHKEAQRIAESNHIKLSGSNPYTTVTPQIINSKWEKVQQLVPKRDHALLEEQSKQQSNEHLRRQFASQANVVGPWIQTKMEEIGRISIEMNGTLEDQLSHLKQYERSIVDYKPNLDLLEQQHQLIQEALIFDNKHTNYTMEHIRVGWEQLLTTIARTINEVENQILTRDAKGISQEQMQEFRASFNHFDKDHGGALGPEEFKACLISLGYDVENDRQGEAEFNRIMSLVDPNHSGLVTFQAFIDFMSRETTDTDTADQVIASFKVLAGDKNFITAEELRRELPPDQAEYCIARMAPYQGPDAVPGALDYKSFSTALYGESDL

How the values were obtained:
[1] = biological target: IFP-F[1]-AKT1 (UniProt P31749); experiment: ReMTH screen; table of potential novel interaction partners of AKT1
[2] = biological target: IFP-F[1]-AKT1 (UniProt P31749); experiment: IFP fragment complementation (PCA), fluorescence microscopy of clone No. 5
[3] = biological target: IFP-F[1]-AKT1 (UniProt P31749); experiment: co-immunoprecipitation from RIPA lysate of clone No. 5, IP anti-AKT1, western blot anti-GFP
[4] = biological target: IFP-F[1]-AKT1 (UniProt P31749); experiment: ReMTH screen: fluorescent cells sorted after retroviral IFP-F[2] tagging in IFP-F[1]-AKT1 HeLa Tet-on cells

binding [1]: binds
binding [2]: binds
binding [3]: binds
binding [4]: binds
Substance: IFP-F[2]-ACTN4 fusion of clone No. 5 (from UniProt O43707 53-911)
